For test [1], the target named is T1, GST-Mlph-ABD E452A (mouse) (UniProt Q91V27).
T1 sequence: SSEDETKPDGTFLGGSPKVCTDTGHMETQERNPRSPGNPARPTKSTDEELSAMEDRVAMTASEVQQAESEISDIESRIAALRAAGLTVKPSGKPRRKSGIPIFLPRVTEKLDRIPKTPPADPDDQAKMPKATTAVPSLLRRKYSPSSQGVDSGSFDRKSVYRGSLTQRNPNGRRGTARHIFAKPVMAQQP
Kind of test: condition: 4 µM Myo5a-MTD, 2 µM GST-Mlph-ABD construct.

Test [2] addresses T2, GST-Mlph-ABD E449A (mouse) (UniProt Q91V27).
T2 sequence: T1 sequence with E49A, A52E
Described as above.

The target in test [3] is T3, GST-Mlph-ABD (the GST-tagged ABD of Mlph, residues 401-590) (mouse) (UniProt Q91V27).
T3 sequence: T1 sequence with A52E
Kind of test: pull-down.

Test [4] deals with T4, GST-Mlph-ABD D447A (mouse) (UniProt Q91V27).
T4 sequence: T1 sequence with D47A, A52E
Kind of test: pull-down.

The target in test [5] is T5, GST-Mlph-ABD R562A (mouse) (UniProt Q91V27).
T5 sequence: T1 sequence with A52E, R162A
Kind of test: pull-down.

Test [6] has as its target T6, Flag-Mlph-EFBD (residues 241-400) (mouse) (UniProt Q91V27).
T6 sequence: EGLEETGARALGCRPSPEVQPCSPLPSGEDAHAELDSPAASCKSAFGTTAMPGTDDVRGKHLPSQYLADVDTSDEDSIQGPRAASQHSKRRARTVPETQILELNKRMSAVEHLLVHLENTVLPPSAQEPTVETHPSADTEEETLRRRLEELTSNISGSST
Kind of test: pull-down.

The target of test [7] is T7, GST-Mlph-ΔRBD (residues 148-590) (mouse) (UniProt Q91V27).
T7 sequence: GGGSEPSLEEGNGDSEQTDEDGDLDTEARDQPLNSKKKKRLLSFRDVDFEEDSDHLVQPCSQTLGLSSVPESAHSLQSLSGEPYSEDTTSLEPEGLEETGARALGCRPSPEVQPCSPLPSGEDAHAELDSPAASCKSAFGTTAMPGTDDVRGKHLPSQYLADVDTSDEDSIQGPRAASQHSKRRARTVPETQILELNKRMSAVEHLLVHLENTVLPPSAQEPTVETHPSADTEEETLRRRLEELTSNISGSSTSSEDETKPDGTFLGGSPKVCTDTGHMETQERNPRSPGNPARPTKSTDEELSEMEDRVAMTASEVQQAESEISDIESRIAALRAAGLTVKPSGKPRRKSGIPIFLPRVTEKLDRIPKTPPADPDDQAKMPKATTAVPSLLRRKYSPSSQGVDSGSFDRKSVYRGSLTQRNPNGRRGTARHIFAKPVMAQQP
Kind of test: pull-down.

Test [8] addresses T8, GST-Mlph-ABD R568A (mouse) (UniProt Q91V27).
T8 sequence: T1 sequence with A52E, R168A
Kind of test: pull-down.

The target in test [9] is T9, Mlph-EFBD (as used in Figure 2C) (mouse) (UniProt Q91V27).
T9 sequence: T6 sequence
Kind of test: pull-down.

The target in test [10] is T10, GST-Mlph-ABD E454A (mouse) (UniProt Q91V27).
T10 sequence: T1 sequence with A52E, E54A
Kind of test: pull-down.

The target in test [11] is T3, GST-Mlph-ABD (the GST-tagged ABD of Mlph, residues 401-590) (mouse). Kind of test: pull-down. This is another data set of the same source.
For test [12] the target is unchanged. Kind of test: condition: 4 µM Myo5a-MTD truncation, 2 µM GST-Mlph-ABD.
Test [13] has as its target Flag-Myo5a-MTD (residues 1106-1467), bacterial-expressed. Kind of test: pull-down.

Where a chain is given by its changes, count along the chain named. No constants are given. Whether binding was seen depends on the method and setting. For some assays here: A result given as binding can be weak or reduced; the word gives no strength. For some assays here: Sequences can lack the tags named with a protein.

As to “Flag-Myo5a-MTD (residues 1106-1467), bacterial-expressed (domain or fragment)”, the binding result was “no binding” in test [1]; “no binding” in [2]; “binds” in [3]; “binds” in test [4]; “binds” in test [5]; “binds” in test [6]. Moreover, the binding entry in test [7], in [8], in test [9], in test [10] and in [11] was “binds” in each case.

As to Flag-Myo5a-MTDΔF (domain or fragment), the binding entry in [3] is listed as “binds”.

With Flag-Myo5a-MTDΔG (domain or fragment), the binding result in test [12] was “no binding”; in [9], “binds”.

For the molecule “Flag-Trx-Myo5a (1411-1467) (domain or fragment)”, the binding entry in test [3] is listed as “binds”.

For the molecule “Flag-Trx-Myo5a (1436-1467) (domain or fragment)”, the binding entry in [11] was “binds weakly”.

B1: GST-Mlph-ΔRBD (residues 148-590) (domain or fragment, UniProt Q91V27 148-590)
chain: T7 sequence
B1: the binding result in test [13] was “binds”.

The values above are taken from doi:10.1101/2023.11.01.565146.
